Results taken from patent publication US3988337A, “Substituted triamino-s-triazines” (BASF Wyandotte Corporation, priority 1974, dated 1976).

Test: Catalysis of toluene diisocyanate condensation to cellular/resinous carbodiimide products (Table I)
Design: key: C: carbodiimide peaks; I: isocyanurate peaks
Details: IR of product; catalyst 1.0 part; 100 parts toluene diisocyanate
Method: Utilizing the triazines of Examples III-VI hereof, a series of cellular and resinous products characterized by carbodiimide linkages, as defined in the above-referred to patents, were prepared by the following procedure:
One hundred parts of toluene diisocyanate was admixed with a catalyst in accordance herewith. With stirring, the admixture was heated to its reaction initiation temperature at which time the reactants were transferred to a separate container for foaming.

CCN(CC)CCN(C)c1nc(N(C)CCO)nc(N(C)CCN(CC)CC)n1 [Example VI, 2,4-bis(N-methyl-2-diethylaminoethylamino)-6-(N-methyl-2-hydroxyethylamino)-s-triazine]
IR Peaks: I
